# Percent effect of library compounds

Sequences of proteins named here, by UniProt entry; tags and fusion partners are left off. Residues count along the entry.
UniProt I6X8D2, whole entry: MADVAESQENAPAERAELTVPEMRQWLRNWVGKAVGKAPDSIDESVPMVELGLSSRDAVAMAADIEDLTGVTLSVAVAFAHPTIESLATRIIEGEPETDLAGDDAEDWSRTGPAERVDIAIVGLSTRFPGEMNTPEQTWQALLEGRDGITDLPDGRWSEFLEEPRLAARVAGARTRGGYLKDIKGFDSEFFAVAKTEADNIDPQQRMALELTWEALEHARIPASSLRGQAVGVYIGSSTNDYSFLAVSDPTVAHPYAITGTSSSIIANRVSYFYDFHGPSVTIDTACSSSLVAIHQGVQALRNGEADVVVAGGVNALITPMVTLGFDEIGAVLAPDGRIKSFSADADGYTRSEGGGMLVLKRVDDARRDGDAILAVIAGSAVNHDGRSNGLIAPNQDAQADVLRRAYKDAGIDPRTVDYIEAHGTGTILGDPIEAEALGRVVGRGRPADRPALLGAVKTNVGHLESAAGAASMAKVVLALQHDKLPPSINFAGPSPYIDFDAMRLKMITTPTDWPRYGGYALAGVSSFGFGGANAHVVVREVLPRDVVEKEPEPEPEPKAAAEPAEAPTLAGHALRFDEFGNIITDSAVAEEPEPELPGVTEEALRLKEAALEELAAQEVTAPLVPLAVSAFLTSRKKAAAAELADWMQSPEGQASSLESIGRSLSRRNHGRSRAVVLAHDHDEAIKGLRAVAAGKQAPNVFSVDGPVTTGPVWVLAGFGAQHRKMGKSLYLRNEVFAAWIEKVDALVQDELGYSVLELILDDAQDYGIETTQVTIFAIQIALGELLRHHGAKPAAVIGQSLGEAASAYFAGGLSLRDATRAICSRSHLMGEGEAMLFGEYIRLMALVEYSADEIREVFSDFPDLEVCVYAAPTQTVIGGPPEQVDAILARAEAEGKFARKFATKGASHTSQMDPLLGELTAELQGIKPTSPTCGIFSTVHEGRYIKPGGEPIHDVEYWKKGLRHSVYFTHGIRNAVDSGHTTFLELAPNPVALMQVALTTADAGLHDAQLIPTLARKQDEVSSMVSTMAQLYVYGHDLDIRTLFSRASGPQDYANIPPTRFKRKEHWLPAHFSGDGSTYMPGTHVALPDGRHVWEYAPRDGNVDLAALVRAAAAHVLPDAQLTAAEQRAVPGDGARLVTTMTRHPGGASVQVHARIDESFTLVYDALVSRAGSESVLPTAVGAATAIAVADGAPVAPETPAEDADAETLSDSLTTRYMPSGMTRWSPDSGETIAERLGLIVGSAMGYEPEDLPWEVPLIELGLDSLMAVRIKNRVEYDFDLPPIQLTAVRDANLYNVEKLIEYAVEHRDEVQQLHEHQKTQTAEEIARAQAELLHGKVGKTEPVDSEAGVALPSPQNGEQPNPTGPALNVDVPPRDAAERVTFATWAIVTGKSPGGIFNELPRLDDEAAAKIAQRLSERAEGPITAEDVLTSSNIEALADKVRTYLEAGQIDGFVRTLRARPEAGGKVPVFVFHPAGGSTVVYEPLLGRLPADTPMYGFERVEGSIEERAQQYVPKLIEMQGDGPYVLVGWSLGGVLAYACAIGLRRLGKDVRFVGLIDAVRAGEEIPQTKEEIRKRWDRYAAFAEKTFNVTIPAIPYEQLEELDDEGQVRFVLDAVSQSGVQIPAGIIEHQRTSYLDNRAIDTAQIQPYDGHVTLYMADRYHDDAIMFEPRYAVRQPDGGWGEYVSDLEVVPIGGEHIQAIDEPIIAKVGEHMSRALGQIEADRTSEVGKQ
UniProt Q8IDJ8, 1-583: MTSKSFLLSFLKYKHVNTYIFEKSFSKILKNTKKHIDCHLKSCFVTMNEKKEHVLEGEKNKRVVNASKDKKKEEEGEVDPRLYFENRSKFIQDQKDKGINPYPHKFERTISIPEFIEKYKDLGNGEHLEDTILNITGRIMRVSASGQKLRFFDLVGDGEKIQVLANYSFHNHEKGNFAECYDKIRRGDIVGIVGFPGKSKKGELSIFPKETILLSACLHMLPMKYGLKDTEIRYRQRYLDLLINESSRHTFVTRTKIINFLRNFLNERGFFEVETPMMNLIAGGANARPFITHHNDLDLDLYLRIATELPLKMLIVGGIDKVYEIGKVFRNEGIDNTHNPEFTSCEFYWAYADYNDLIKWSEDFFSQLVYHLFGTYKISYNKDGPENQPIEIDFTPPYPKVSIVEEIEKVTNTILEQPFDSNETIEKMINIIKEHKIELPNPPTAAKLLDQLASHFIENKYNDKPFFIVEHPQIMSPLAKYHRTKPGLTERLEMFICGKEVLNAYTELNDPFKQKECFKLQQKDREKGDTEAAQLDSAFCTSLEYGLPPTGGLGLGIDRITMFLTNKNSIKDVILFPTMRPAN
UniProt A4I591, 1-473: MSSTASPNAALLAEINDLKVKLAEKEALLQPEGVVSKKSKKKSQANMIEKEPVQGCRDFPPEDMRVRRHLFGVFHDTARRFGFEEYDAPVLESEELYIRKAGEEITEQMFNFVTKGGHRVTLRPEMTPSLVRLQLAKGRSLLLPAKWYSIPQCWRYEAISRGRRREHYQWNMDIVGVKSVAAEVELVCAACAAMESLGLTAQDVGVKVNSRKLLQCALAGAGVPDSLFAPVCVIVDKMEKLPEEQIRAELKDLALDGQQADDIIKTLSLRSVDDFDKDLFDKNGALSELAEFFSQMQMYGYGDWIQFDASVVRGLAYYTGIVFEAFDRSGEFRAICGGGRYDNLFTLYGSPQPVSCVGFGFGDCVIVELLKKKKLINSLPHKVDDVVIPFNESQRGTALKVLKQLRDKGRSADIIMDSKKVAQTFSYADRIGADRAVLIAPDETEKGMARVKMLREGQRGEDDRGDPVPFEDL
UniProt P9WFT3, whole entry: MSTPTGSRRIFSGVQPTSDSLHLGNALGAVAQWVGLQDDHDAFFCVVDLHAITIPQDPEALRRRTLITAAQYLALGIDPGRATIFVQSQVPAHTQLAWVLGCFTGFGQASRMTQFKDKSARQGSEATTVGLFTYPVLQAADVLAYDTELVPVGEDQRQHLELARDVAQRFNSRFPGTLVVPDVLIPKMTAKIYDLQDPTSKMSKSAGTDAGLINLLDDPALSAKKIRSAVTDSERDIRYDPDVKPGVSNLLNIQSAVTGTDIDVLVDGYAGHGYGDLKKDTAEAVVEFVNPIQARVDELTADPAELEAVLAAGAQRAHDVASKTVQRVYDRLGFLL

Pks13 thioesterase: 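Polyketide synthase Pks13, Mycobacterium tuberculosis (UniProt I6X8D2). Enzyme assay of the thioesterase domain of polyketide synthase 13; the read-out is not stated. Compounds at 30 µM. The record gives no direction; the compounds picked for IC50 retests had high values, so higher reads as stronger inhibition. Size under these conditions: about 67,000 compounds, about 300 of them at 50% or above in at least one test.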
PfKRS1: 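Lysine-tRNA ligase, Plasmodium falciparum 3D7 (UniProt Q8IDJ8). Enzyme assay of the cytosolic lysyl-tRNA synthetase in 384-well plates, read by luminescence. Concentration: 30 µM. Direction is inferred from only a few compounds that gave an IC50; most scored high, so higher reads as stronger inhibition. About 69,000 compounds were tested under these conditions; 0.071% (about 49) showed 50% or more at least once.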
LiHisRS: 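Histidine-tRNA ligase, Leishmania infantum (UniProt A4I591). Enzyme assay of histidyl-tRNA synthetase; the read-out is not stated. Concentration: 30 µM. Higher reads as stronger inhibition (inferred: compounds with an IC50 in retests scored well above the rest). The assay is labelled LdHisRS but filed under L. infantum. About 69,000 compounds were tested under these conditions; 0.6% (about 410) showed 50% or more at least once.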
MtTrpRS: 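Tryptophan-tRNA ligase, Mycobacterium tuberculosis (UniProt P9WFT3). Enzyme assay of tryptophanyl-tRNA synthetase; the read-out is not stated. Tested at 10 µM. Direction is not recorded; retested compounds ran higher, which suggests that high means inhibition. About 65,000 compounds were tested under these conditions; 0.098% (about 64) showed 50% or more at least once.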

Results are given as percent effect.
The record does not define 0% and 100%; most values in the screen are far below 50% and negative numbers occur (in some assays of this library far below -100).
The compounds are a random part of those screened.
A dash means the value is not listed here; it may have been measured.

| Compound | Pks13 thioesterase | PfKRS1 | LiHisRS | MtTrpRS |
|---|---|---|---|---|
| `CC(=O)N1CCN(C(=O)c2cc(-n3cnnn3)ccc2Cl)CC1` | -21.77% | -2.589% | 0% | 6.038% |
| `CCN(Cc1nccn1C)C(=O)c1ccc(NCC(C)C)nc1` | 1.973% | 1.975% | 5.833% | 0.7236% |
| `Cc1ccc(N2CCC(C(O)Cc3ccccc3)CC2)nn1` (stereo not shown) | -23.24% | 3.477% | 4.478% | 0.455% |
| `CCCSc1nn(CCCN(C)C)c2nc3sc(C)c(CC)c3c(=O)n12` | -1.539% | 8.875% | 20% | 2.169% |
| `CC(CS(C)(=O)=O)N(C)C(=O)NCCCc1ccc(Cl)cc1` (stereo not shown) | -6.315% | 6.952% | 16.81% | -2.168% |
| `c1cncc(Cc2nnc3n2CCN(CC2CCOC2)CC3)c1` (stereo not shown) | -34.96% | 6.159% | 18.99% | 1.852% |
| `CC(C)Oc1ncnc2c1CCN(Cc1ccc(F)cc1)CC2` | - | 10.82% | 27.78% | -4.554% |
| `COCCN1CCCC2(CCN(Cc3noc(C4CCCC4)n3)C2)C1=O` (stereo not shown) | 35.61% | 0.9788% | 7.292% | 9.297% |
| `CCc1cnc(C)nc1NC(CC)c1cnn(C)c1` (stereo not shown) | -23.08% | 0.4242% | 16.44% | 2.086% |
| `COc1ccc(-c2nc(CC(=O)N(C)CCC#N)cs2)cc1OC` | 4.076% | -3.199% | 3.665% | -4.528% |
| `O=C(NC1CC1)c1cc(NC(=O)N2CCOCC2)ccc1Cl` | -8.303% | -0.2777% | 19.2% | -2.107% |
| `CCNC(=O)N1CCC2(C1)c1ccccc1S(=O)(=O)N2CCOC` (stereo not shown) | -10.77% | 5.84% | 24.47% | 3.828% |
| `CN1CC(C(=O)NCc2ccnc(-n3cccn3)c2)CC1=O` (stereo not shown) | -23.96% | 1.145% | 10.19% | 1.471% |
| `Cc1nccc(C(=O)N2CCCN(Cc3cnn(C(C)C)c3)CC2)n1` | -6.506% | 12.01% | 17.31% | 0.7505% |
| `COc1ccc(CCNC(=O)C2CCOC2)c(Cl)c1` (stereo not shown) | -7.633% | 3.46% | 12.9% | -3.502% |
| `COC(=O)CN1CCC(C(F)(F)F)CC1` | -9.106% | 1.705% | 14.58% | -7.434% |
| `CC(C)OCCCNC(=O)CSc1nnc(OC(C)C)s1` | -36.59% | 3.75% | 8.219% | -1.04% |
| `CCO[C@@H]1CCN(C(=O)c2ccnnc2)[C@@H]1Cc1cnn(C)c1` | -7.274% | 1.13% | 5% | -4.018% |
| `Cc1cccc(OCCN2CCC(c3ccnn3CCO)CC2)c1` | 2.841% | 0.4895% | 20.18% | 1.002% |
| `O=C(c1ccco1)N1CCC2(CCCN(c3ncccn3)C2)C1` (stereo not shown) | -38.75% | -0.964% | -0.9091% | - |
| `Cc1ccc(C2COCCN2C(=O)c2ccc(C)s2)o1` (stereo not shown) | 2.891% | 3.728% | 6.25% | 1.231% |
| `CC(=O)NS(=O)(=O)c1ccc(F)cc1C(F)(F)F` | -8.633% | -3.593% | 11.5% | 6.11% |
| `Cc1ncsc1CN1CC[C@H]2OCC[C@@]2(C(=O)NC2CC2)C1` | 1.384% | 0.3369% | 4.425% | -3.426% |
| `NC(=O)C1CN(C(=O)C2(c3ccc(F)cc3F)CCCC2)CCO1` (stereo not shown) | -26.05% | 3.277% | 12.12% | -0.8073% |
| `Cc1nc(CN2CCC3(CC2)NC(=O)CC3c2ccncc2)cs1` (stereo not shown) | -17.29% | 3.781% | 28.44% | -0.8292% |
| `Cc1cc(=O)c2ccccc2n1CC1CCN(C(C)C)C1` (stereo not shown) | -9.395% | 1.449% | 24.19% | -2.388% |
| `COc1ccc(F)cc1-c1ccccc1CC1(C(=O)O)CCOCC1` | -19.36% | -0.656% | -1.418% | 9.602% |
| `Cc1ccc(N2CCc3sc(C(=O)N4CCOCC4)cc32)nn1` | -4.082% | 2.06% | 50% | -2.813% |
| `O=C1NCCc2c1sc1ccc(C(=O)N3CC[C@H](CO)[C@H](O)C3)cc21` | -13.99% | 9.621% | 18.4% | 1.957% |
| `Cc1ccccc1OCC1CCCN(C(=O)CN(C)C2CCNCC2)C1` (stereo not shown) | -32.6% | 6.649% | 25% | 7.038% |
| `O=C(NCCN1C(=O)CCC1=O)c1nc2ccccc2c(=O)[nH]1` | - | -2.247% | 16% | 0.7524% |
| `CCc1ccc(C(=O)N2CCCN(Cc3csc(CC)n3)CC2)o1` | -3.22% | 2.569% | 16% | -1.591% |
| `Cc1cc(C)c2cc(C(=O)N3CCN(Cc4ccco4)CC3)[nH]c2c1` | -26.23% | 6.984% | 15.38% | -9.213% |

The first 4 entries again:

Compound,Pks13 thioesterase,PfKRS1,LiHisRS,MtTrpRS
CC(=O)N1CCN(C(=O)c2cc(-n3cnnn3)ccc2Cl)CC1,-21.77%,-2.589%,0%,6.038%
CCN(Cc1nccn1C)C(=O)c1ccc(NCC(C)C)nc1,1.973%,1.975%,5.833%,0.7236%
Cc1ccc(N2CCC(C(O)Cc3ccccc3)CC2)nn1 (stereo not shown),-23.24%,3.477%,4.478%,0.455%
CCCSc1nn(CCCN(C)C)c2nc3sc(C)c(CC)c3c(=O)n12,-1.539%,8.875%,20%,2.169%

From ChEMBL document CHEMBL3988442, “University of Dundee, Small-Polar-MMV Screening Library” (2021).